Results from PMC3338717.

Amino acid sequences for entries named in this document (tags omitted). A change or cut given only in a name is not applied to a line headed by its entry.
UniProt P28033: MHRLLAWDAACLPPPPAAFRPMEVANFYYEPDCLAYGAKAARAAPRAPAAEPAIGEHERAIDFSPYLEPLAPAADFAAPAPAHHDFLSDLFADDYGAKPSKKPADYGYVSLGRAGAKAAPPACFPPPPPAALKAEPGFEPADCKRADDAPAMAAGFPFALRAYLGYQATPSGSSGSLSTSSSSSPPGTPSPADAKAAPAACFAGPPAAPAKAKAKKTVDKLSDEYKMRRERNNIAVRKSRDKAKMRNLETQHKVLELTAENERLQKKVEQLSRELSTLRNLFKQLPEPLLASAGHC

Tests used:
Experiment in all cases: EMSA supershift
[1] = target: T1, C/EBPγ (adenovirally overexpressed) (mouse) (UniProt P53568); details: Adeno-C/EBPγ-infected MLE12 nuclear extract; 25 µl with 6 µl nuclear extract in buffer C (420 mM NaCl, 20 mM HEPES pH 7.9, 25% glycerol), 5x binding buffer (20% Ficoll, 50 mM HEPES pH 7.9, 5 mM EDTA, 5 mM DTT); protein in an extract; residues 1-150; label: 32P
T1 sequence (looked up): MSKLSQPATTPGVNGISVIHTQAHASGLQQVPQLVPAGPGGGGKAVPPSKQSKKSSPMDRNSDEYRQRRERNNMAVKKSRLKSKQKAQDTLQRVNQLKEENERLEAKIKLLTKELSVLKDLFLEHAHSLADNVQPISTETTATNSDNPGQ

[2] = test system: C/EBPγ (endogenous) + C/EBPβ isoform LIP (endogenous); details: γ:LIP heterodimer, increased by IL-1β; 25 µl with 6 µl nuclear extract in buffer C (420 mM NaCl, 20 mM HEPES pH 7.9, 25% glycerol), 5x binding buffer (20% Ficoll, 50 mM HEPES pH 7.9, 5 mM EDTA, 5 mM DTT); protein in an extract; label: 32P
[3] = test system: C/EBPγ (endogenous) + C/EBPβ isoform LAP (endogenous); details: γ:LAP heterodimer, increased by IL-1β; 25 µl with 6 µl nuclear extract in buffer C (420 mM NaCl, 20 mM HEPES pH 7.9, 25% glycerol), 5x binding buffer (20% Ficoll, 50 mM HEPES pH 7.9, 5 mM EDTA, 5 mM DTT); protein in an extract; label: 32P
[4] = target: T2, C/EBPγ (endogenous) (mouse (MLE12 cells)) (UniProt P53568); details: γ:γ homodimer, with and without IL-1β, increased by IL-1β; 25 µl with 6 µl nuclear extract in buffer C (420 mM NaCl, 20 mM HEPES pH 7.9, 25% glycerol), 5x binding buffer (20% Ficoll, 50 mM HEPES pH 7.9, 5 mM EDTA, 5 mM DTT); protein in an extract; label: 32P
T2 sequence (looked up, limits assumed): T1 sequence (looked up)

[5] = target: C/EBPβ (endogenous) (mouse (MLE12 cells)) (UniProt P28033); details: with and without IL-1β; 25 µl with 6 µl nuclear extract in buffer C (420 mM NaCl, 20 mM HEPES pH 7.9, 25% glycerol), 5x binding buffer (20% Ficoll, 50 mM HEPES pH 7.9, 5 mM EDTA, 5 mM DTT); protein in an extract; label: 32P

Measured: binding result

CTAAACGACGTCACATTGTGCAATCTTAATAAGGTT / TGGAAACCTTATTAAGATTGCACAATGTGACGTCGT [murine IL-6 C/EBP site probe]
binds: [1] | [2] | [3] | [4] | [5]

For at least one entry, the source does not settle the construct or the ends of the probe. At least one result comes from cells or an extract, where the contact may be indirect. For some assays here: Protein sequences can lack the tags named with them.
